From the supplement of paper PMC10849652
The list shows a part of the results.

The chains behind the UniProt entries cited, without tags or fusion partners. Where a name states a change or a piece, a line headed by the entry shows the natural chain unless it says otherwise.
UniProt P02042: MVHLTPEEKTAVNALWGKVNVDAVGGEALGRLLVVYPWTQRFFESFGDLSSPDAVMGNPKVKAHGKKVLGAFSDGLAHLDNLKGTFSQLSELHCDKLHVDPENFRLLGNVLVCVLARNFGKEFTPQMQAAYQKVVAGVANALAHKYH
UniProt P10412, whole entry, looked up: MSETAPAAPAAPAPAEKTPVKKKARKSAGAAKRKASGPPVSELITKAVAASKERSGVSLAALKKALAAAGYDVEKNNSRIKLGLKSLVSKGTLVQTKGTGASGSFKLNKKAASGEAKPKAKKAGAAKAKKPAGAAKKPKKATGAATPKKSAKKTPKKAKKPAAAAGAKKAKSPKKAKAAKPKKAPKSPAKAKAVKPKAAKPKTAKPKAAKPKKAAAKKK
UniProt Q68CZ6: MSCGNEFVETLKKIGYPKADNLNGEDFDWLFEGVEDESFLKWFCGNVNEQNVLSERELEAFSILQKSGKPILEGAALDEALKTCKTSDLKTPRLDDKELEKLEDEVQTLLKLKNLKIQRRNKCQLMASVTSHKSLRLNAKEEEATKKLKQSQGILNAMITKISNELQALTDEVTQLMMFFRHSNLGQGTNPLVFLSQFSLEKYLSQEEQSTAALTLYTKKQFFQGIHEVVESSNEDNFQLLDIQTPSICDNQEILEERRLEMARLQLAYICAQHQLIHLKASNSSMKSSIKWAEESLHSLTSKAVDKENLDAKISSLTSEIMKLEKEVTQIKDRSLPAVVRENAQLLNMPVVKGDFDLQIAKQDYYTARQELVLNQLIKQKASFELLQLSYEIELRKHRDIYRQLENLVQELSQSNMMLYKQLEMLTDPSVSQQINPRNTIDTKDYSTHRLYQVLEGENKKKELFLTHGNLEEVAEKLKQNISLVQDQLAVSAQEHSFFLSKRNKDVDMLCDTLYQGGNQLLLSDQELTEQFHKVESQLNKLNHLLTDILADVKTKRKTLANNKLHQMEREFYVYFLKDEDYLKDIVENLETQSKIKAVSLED
UniProt P08236: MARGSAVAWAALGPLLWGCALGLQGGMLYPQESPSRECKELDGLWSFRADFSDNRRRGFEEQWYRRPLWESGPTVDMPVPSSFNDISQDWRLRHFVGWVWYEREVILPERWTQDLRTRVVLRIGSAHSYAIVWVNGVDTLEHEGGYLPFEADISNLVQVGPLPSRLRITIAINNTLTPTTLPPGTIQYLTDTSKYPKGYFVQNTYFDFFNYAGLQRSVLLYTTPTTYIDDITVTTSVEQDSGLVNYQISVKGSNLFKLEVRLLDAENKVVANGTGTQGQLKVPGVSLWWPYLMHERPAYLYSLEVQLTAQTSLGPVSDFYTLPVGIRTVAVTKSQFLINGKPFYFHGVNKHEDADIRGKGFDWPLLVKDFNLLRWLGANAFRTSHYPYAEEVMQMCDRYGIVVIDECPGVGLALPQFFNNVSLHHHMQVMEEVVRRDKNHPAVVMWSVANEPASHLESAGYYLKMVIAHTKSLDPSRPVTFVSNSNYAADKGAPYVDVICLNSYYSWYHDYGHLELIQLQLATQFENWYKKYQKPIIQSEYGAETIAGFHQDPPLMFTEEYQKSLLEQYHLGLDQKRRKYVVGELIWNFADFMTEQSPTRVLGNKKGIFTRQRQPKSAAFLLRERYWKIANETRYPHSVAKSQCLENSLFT
UniProt Q9Y5Q9: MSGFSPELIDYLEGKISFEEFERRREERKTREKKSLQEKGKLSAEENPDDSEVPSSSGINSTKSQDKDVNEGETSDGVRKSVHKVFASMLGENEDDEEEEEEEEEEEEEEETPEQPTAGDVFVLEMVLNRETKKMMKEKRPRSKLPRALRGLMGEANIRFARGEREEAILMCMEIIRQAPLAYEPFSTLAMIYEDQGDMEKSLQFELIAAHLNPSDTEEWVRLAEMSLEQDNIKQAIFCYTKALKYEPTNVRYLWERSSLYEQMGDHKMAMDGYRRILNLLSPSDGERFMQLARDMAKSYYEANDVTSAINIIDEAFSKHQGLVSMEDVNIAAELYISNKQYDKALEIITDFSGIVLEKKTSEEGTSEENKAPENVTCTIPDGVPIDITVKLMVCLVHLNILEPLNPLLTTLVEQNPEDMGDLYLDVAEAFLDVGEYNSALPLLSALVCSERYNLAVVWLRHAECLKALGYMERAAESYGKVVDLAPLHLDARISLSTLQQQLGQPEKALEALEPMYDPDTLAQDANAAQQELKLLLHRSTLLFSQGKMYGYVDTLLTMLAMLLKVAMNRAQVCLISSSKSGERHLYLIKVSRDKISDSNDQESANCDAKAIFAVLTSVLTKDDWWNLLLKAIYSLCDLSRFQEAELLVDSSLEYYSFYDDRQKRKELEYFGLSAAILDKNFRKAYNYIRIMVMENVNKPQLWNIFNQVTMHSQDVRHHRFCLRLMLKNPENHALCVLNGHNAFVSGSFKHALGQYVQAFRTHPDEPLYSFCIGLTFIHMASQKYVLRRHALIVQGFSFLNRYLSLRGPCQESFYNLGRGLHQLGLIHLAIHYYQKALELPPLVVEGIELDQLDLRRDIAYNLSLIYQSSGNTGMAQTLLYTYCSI
UniProt Q8WUA4: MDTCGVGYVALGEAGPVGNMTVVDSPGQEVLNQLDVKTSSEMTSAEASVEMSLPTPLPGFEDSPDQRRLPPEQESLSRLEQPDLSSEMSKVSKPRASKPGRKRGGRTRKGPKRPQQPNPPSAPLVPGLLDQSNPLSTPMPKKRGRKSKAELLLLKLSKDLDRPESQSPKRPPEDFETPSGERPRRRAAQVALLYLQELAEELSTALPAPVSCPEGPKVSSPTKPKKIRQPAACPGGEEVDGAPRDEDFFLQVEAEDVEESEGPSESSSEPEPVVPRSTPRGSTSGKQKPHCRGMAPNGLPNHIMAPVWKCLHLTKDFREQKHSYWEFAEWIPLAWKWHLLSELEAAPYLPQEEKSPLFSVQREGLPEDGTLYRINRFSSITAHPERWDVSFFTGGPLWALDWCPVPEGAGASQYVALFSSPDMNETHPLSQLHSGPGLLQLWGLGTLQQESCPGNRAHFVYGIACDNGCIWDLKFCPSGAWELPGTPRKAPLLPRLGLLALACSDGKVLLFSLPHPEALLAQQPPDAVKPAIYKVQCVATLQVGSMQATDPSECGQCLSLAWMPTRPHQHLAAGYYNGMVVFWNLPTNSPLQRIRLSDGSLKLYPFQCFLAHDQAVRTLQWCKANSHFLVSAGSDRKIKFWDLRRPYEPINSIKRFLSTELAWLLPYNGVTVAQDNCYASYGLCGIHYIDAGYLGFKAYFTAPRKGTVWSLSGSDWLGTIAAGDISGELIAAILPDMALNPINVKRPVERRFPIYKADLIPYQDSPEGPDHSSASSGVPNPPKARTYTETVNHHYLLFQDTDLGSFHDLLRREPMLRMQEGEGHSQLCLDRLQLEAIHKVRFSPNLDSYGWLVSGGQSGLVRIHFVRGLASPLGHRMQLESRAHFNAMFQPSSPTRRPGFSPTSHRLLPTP
UniProt Q13888: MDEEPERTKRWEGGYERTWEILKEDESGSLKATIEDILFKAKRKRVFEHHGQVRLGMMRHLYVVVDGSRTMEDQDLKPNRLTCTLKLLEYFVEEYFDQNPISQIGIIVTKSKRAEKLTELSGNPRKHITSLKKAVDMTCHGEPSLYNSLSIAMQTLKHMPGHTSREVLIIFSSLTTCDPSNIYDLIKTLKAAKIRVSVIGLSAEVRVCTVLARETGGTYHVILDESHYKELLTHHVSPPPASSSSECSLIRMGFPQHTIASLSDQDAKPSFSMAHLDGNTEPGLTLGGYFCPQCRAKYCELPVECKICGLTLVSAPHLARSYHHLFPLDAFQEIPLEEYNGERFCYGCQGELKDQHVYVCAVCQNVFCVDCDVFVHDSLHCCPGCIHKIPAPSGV

Assays:
Experiment in all cases: log2 fold change, soluble protein after heating vs DMSO (PISA); higher = thermal stabilisation; K562 lysate, 10 uM; active = over 0.2 and 3.5 SD of the protein, either way, in both replicates (recomputed)
lapatinib = compound: CS(=O)(=O)CCNCc1ccc(-c2ccc3ncnc(Nc4ccc(OCc5cccc(F)c5)c(Cl)c4)c3c2)o1 [lapatinib]
Outline: (§1)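 Dounce homogenisation of K562 pellets in PBS pH 7.4 with 1 mM MgCl2 produced a crude extract, used at 1 mg/mL protein. Exposure to 10 μM compound lasted 30 min, and aliquots were then heated for 3 min across 48°C-58°C, pooled and brought to 0.5% NP-40 at 4°C. The supernatant after 21,000xg for 90 min was quantified by TMTpro 16plex LC-MS/MS with channel sums equalised. Duplicate values are given as log-two fold change in thermal stability relative to solvent controls.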

pictilisib = compound: CS(=O)(=O)N1CCN(Cc2cc3nc(-c4cccc5[nH]ncc45)nc(N4CCOCC4)c3s2)CC1 [pictilisib]
Outline: as §1

crizotinib = compound: C[C@@H](Oc1cc(-c2cnn(C3CCNCC3)c2)cnc1N)c1c(Cl)ccc(F)c1Cl [crizotinib]
Outline: as §1

[1] = compound: C[C@H](C1=CC=C(C=C1)C(=O)NC2=C3C=CNC3=NC=C2)N
Outline: as §1

duvelisib = compound: C[C@H](Nc1ncnc2nc[nH]c12)c1cc2cccc(Cl)c2c(=O)n1-c1ccccc1 [duvelisib]
Outline: as §1

gandotinib = compound: Cc1cc(Nc2cc(CN3CCOCC3)c3nc(C)c(Cc4ccc(Cl)cc4F)n3n2)n[nH]1 [gandotinib]
Outline: as §1

tozasertib = compound: Cc1cc(Nc2cc(N3CCN(C)CC3)nc(Sc3ccc(NC(=O)C4CC4)cc3)n2)n[nH]1 [tozasertib]
Outline: as §1

doramapimod = compound: Cc1ccc(-n2nc(C(C)(C)C)cc2NC(=O)Nc2ccc(OCCN3CCOCC3)c3ccccc23)cc1 [doramapimod]
Outline: as §1

bafetinib = compound: Cc1ccc(NC(=O)c2ccc(CN3CC[C@H](N(C)C)C3)c(C(F)(F)F)c2)cc1Nc1nccc(-c2cncnc2)n1 [bafetinib]
Outline: as §1

[2] = compound: Cc1cccc(CC(=O)N2CCc3c2ccc(-c2cn(C)c4ncnc(N)c24)c3F)n1
Outline: as §1

nilotinib = compound: Cc1cn(-c2cc(NC(=O)c3ccc(C)c(Nc4nccc(-c5cccnc5)n4)c3)cc(C(F)(F)F)c2)cn1 [nilotinib]
Outline: as §1

[3] = compound: Cc1nc(Nc2n[nH]c3c2CN(C(=O)N[C@H](CN(C)C)c2ccccc2)C3(C)C)c2sccc2n1
Outline: as §1

dasatinib = compound: Cc1nc(Nc2ncc(C(=O)Nc3c(C)cccc3Cl)s2)cc(N2CCN(CCO)CC2)n1 [dasatinib]
Outline: as §1

[4] = compound: Cc1ncc(-c2ccnc(Nc3ccc(S(C)(=O)=O)cc3)n2)n1C(C)C
Outline: as §1

[5] = compound: Cn1cc(-c2ccc3c(c2)CCN3C(=O)Cc2cccc(C(F)(F)F)c2)c2c(N)ncnc21
Outline: as §1

quisinostat = compound: Cn1cc(CNCC2CCN(c3ncc(C(=O)NO)cn3)CC2)c2ccccc21 [quisinostat]
Outline: as §1

tipifarnib = compound: Cn1cncc1[C@@](N)(c1ccc(Cl)cc1)c1ccc2c(c1)c(-c1cccc(Cl)c1)cc(=O)n2C [tipifarnib]
Outline: as §1

[6] = compound: NC(=O)Nc1cc(-c2cccc(F)c2)sc1C(=O)N[C@H]1CCCNC1
Outline: as §1

[7] = compound: NC(=O)c1cnc(N[C@@H]2CCCC[C@@H]2N)nc1Nc1cccc(-n2nccn2)c1
Outline: as §1

[8] = compound: NC1(c2ccc(-c3nc4ccn5c(=O)[nH]nc5c4cc3-c3ccccc3)cc2)CCC1
Outline: as §1

HBD (UniProt P02042)
log2 fold change (lapatinib): inactive: 0.094
log2 fold change (pictilisib): inactive: -0.071
log2 fold change (crizotinib): inactive: 0.01
log2 fold change [1]: inactive: 0.068
log2 fold change (duvelisib): inactive: 0.003
log2 fold change (gandotinib): inactive: -0.023
log2 fold change (tozasertib): inactive: 0.026
log2 fold change (doramapimod): inactive: 0.002
log2 fold change (bafetinib): inactive: -0.08
log2 fold change [2]: inactive: -0.099
log2 fold change (nilotinib): inactive: 0.064
log2 fold change [3]: inactive: 0.028
log2 fold change (dasatinib): inactive: 0.039
log2 fold change [4]: inactive: 0.071
log2 fold change [5]: inactive: -0.009
log2 fold change (quisinostat): inactive: 0.056
log2 fold change (tipifarnib): inactive: 0.02
log2 fold change [6]: inactive: -0.05
log2 fold change [7]: inactive: -0.033
log2 fold change [8]: inactive: -0.032

H1-4 (UniProt P10412)
log2 fold change (lapatinib): inactive: 0.005
log2 fold change (pictilisib): inactive: -0.007
log2 fold change (crizotinib): inactive: 0.022
log2 fold change [1]: inactive: -0.15
log2 fold change (duvelisib): inactive: -0.014
log2 fold change (gandotinib): inactive: 0.033
log2 fold change (tozasertib): inactive: -0.117
log2 fold change (doramapimod): inactive: -0.009
log2 fold change (bafetinib): inactive: -0.021
log2 fold change [2]: inactive: -0.001
log2 fold change (nilotinib): inactive: -0.044
log2 fold change [3]: inactive: 0.019
log2 fold change (dasatinib): inactive: -0.022
log2 fold change [4]: inactive: -0.028
log2 fold change [5]: inactive: -0.025
log2 fold change (quisinostat): inactive: -0.001
log2 fold change (tipifarnib): inactive: -0.057
log2 fold change [6]: inactive: -0.02
log2 fold change [7]: inactive: -0.06
log2 fold change [8]: inactive: -0.072

HAUS3 (UniProt Q68CZ6)
log2 fold change (lapatinib): inactive: -0.011
log2 fold change (pictilisib): inactive: -0.001
log2 fold change (crizotinib): inactive: -0.084
log2 fold change [1]: inactive: 0.013
log2 fold change (duvelisib): inactive: -0.042
log2 fold change (gandotinib): inactive: -0.059
log2 fold change (tozasertib): inactive: 0.014
log2 fold change (doramapimod): inactive: -0.034
log2 fold change (bafetinib): inactive: -0.11
log2 fold change [2]: inactive: 0.079
log2 fold change (nilotinib): inactive: 0.02
log2 fold change [3]: inactive: -0.027
log2 fold change (dasatinib): inactive: -0.075
log2 fold change [4]: inactive: 0.008
log2 fold change [5]: inactive: 0.003
log2 fold change (quisinostat): inactive: -0.059
log2 fold change (tipifarnib): inactive: -0.045
log2 fold change [6]: inactive: 0.017
log2 fold change [7]: inactive: -0.015
log2 fold change [8]: inactive: -0.038

GUSB (UniProt P08236)
log2 fold change (lapatinib): inactive: -0.097
log2 fold change (pictilisib): inactive: -0.012
log2 fold change (crizotinib): inactive: -0.044
log2 fold change [1]: active: -0.547
log2 fold change (duvelisib): inactive: 0.017
log2 fold change (gandotinib): inactive: 0.228
log2 fold change (tozasertib): inactive: 0.02
log2 fold change (doramapimod): inactive: 0.037
log2 fold change (bafetinib): inactive: -0.057
log2 fold change [2]: inactive: 0.27
log2 fold change (nilotinib): inactive: 0.028
log2 fold change [3]: inactive: -0.067
log2 fold change (dasatinib): inactive: 0.007
log2 fold change [4]: inactive: -0.026
log2 fold change [5]: inactive: -0.002
log2 fold change (quisinostat): inactive: -0.109
log2 fold change (tipifarnib): inactive: -0.066
log2 fold change [6]: inactive: -0.041
log2 fold change [7]: inactive: 0.001
log2 fold change [8]: inactive: -0.01

H4C1 (UniProt P62805)
log2 fold change (lapatinib): inactive: -0.043
log2 fold change (pictilisib): inactive: -0.069
log2 fold change (crizotinib): inactive: 0.032
log2 fold change [1]: inactive: 0.003
log2 fold change (duvelisib): inactive: -0.16
log2 fold change (gandotinib): inactive: 0
log2 fold change (tozasertib): inactive: -0.027
log2 fold change (doramapimod): inactive: 0.006
log2 fold change (bafetinib): inactive: 0.059
log2 fold change [2]: inactive: -0.044
log2 fold change (nilotinib): inactive: 0.051
log2 fold change [3]: inactive: -0.027
log2 fold change (dasatinib): inactive: -0.063
log2 fold change [4]: inactive: -0.033
log2 fold change [5]: inactive: 0.048
log2 fold change (quisinostat): inactive: 0.137
log2 fold change (tipifarnib): inactive: 0
log2 fold change [6]: inactive: -0.032
log2 fold change [7]: inactive: 0.01
log2 fold change [8]: inactive: 0.015

GTF3C3 (UniProt Q9Y5Q9)
log2 fold change (lapatinib): inactive: -0.043
log2 fold change (pictilisib): inactive: -0.051
log2 fold change (crizotinib): inactive: -0.093
log2 fold change [1]: inactive: -0.108
log2 fold change (duvelisib): inactive: 0.017
log2 fold change (gandotinib): inactive: -0.037
log2 fold change (tozasertib): inactive: 0.009
log2 fold change (doramapimod): inactive: 0.012
log2 fold change (bafetinib): inactive: -0.045
log2 fold change [2]: inactive: 0.084
log2 fold change (nilotinib): inactive: 0.035
log2 fold change [3]: inactive: 0.052
log2 fold change (dasatinib): inactive: 0.008
log2 fold change [4]: inactive: -0.026
log2 fold change [5]: inactive: 0.009
log2 fold change (quisinostat): inactive: -0.134
log2 fold change (tipifarnib): inactive: -0.057
log2 fold change [6]: inactive: 0.031
log2 fold change [7]: inactive: 0.009
log2 fold change [8]: inactive: -0.084

GTF3C2 (UniProt Q8WUA4)
log2 fold change (lapatinib): inactive: -0.016
log2 fold change (pictilisib): inactive: -0.042
log2 fold change (crizotinib): inactive: -0.017
log2 fold change [1]: inactive: -0.127
log2 fold change (duvelisib): inactive: 0.018
log2 fold change (gandotinib): inactive: 0.068
log2 fold change (tozasertib): inactive: -0.055
log2 fold change (doramapimod): inactive: -0.014
log2 fold change (bafetinib): inactive: -0.107
log2 fold change [2]: inactive: 0.124
log2 fold change (nilotinib): inactive: -0.034
log2 fold change [3]: inactive: -0.031
log2 fold change (dasatinib): inactive: -0.029
log2 fold change [4]: inactive: -0.047
log2 fold change [5]: inactive: 0.001
log2 fold change (quisinostat): inactive: -0.064
log2 fold change (tipifarnib): inactive: 0.006
log2 fold change [6]: inactive: 0.009
log2 fold change [7]: inactive: 0.037
log2 fold change [8]: inactive: 0.005

GTF2H2 (UniProt Q13888)
log2 fold change (lapatinib): inactive: 0.008
log2 fold change (pictilisib): inactive: -0.061
log2 fold change (crizotinib): inactive: -0.02
log2 fold change [1]: inactive: -0.031
log2 fold change (duvelisib): inactive: 0.009
log2 fold change (gandotinib): inactive: 0.008
log2 fold change (tozasertib): inactive: 0.022
log2 fold change (doramapimod): inactive: -0.053
log2 fold change (bafetinib): inactive: -0.06
log2 fold change [2]: inactive: 0.077
log2 fold change (nilotinib): inactive: -0.009
log2 fold change [3]: inactive: 0.019
log2 fold change (dasatinib): inactive: -0.058
log2 fold change [4]: inactive: 0.064
log2 fold change [5]: inactive: 0.038
log2 fold change (quisinostat): inactive: 0.01
log2 fold change (tipifarnib): inactive: 0.015
log2 fold change [6]: inactive: 0.024
log2 fold change [7]: inactive: 0.005
log2 fold change [8]: inactive: 0
